According to PubChem BioAssay AID504666 (Broad Institute, 2011):
Inconclusive means that the source gave no clear call. Such entries were picked first, then a sample of the others. The source made the active and inactive calls.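 The calls were made as follows: active = compounds lowering the viability signal in every test, with half-maximal concentration at most ten times the top dose; inconclusive = mixed test calls, a flat partial drop, or a poor fit; inactive = all tests inactive.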

Assay: viability loss in shGFP HMLE line – cell-based, CellTiter-Glo luminescence, 72 h, dry powder, set 6, counter-screen for breast cancer stem cell project, dose response (AID 504666)
Details: HMLE_sh_eGFP viability; at 19.5 µM (top of the series) unless noted
In short: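 Material – HMLE_sh_eGFP cell line · Amount – 2000 cells/well · Buffer or medium – serum-free culture medium for cell plating and exposure · Compound dosing – 100 nL pinned compound · Incubation – ~70-74 h compound exposure, 37 °C · Measured by – CellTiter-Glo luminescence, reagent used at 1:3 dilution in PBS · Control set – DMSO neutral, puromycin positive controls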

Compound	activity change, negative = toxicity
Cc1csc(NC(=O)c2ccc(COc3cccc(S(C)(=O)=O)c3)o2)n1	inactive: -5.74%
CC(C)c1ccc(CCC(=O)NC2=NCCS2)cc1	inconclusive: -29.3%
O=C(COc1ccc(Cl)cc1Cl)N/N=C/c1ccc[nH]1	inconclusive: -36.1%
CC(C)c1ccc(/C=C/C(=O)Nc2nc3ccccc3s2)cc1	inconclusive: -43.2%
N#Cc1ccc(/C=C/C(=O)NC2=NCCS2)cc1	inconclusive: -21.1%
Cc1csc(NC(=O)c2ccc(COc3ccc(S(C)(=O)=O)cc3)o2)n1	inconclusive: -27.7%
O=C(COc1c(Cl)cc(Cl)cc1Cl)N/N=C/c1ccc[nH]1	inconclusive: -41%
CNC(=O)c1csc(NC(=O)c2ccc(COc3ccccc3)o2)n1	inconclusive: -15.2%
COCc1ccc(C(=O)Nc2nc(C)cs2)o1	inconclusive: -19.6%
N#Cc1cnc(NC(=O)c2ccc(COc3ccccc3)o2)s1	inconclusive: 7.03%
Cc1csc(NC(=O)c2ccc(COc3ccccc3S(C)(=O)=O)o2)n1	inconclusive: -13%
Cc1csc(NC(=O)c2cocc2COc2ccccc2)n1	inactive: 8.46% [at 30 µM]
CC(C)NC(=O)c1ccc(COc2ccccc2)o1	inactive: 0.674%

Two of these compounds in a different format:
O=C(COc1ccc(Cl)cc1Cl)N/N=C/c1ccc[nH]1
  activity change, negative = toxicity: inconclusive: -36.1%
CC(C)c1ccc(/C=C/C(=O)Nc2nc3ccccc3s2)cc1
  activity change, negative = toxicity: inconclusive: -43.2%
